The whole screen tested about 330,000 compounds, of which about 7,700 (2.3%) were called active. The shares of active, inactive and inconclusive entries below differ from those in the screen. Calls follow the shape of the dose curve; as a rule, active = well fitted inhibition curve with a large enough effect; inconclusive = small, poorly fitted or top-dose-only effect, or effect the other way; inactive = flat fitted curve, though single readings scatter. Potencies of inconclusive entries are doubtful fits and often do not repeat.
Test: qHTS screen for small molecules that inhibit ELG1-dependent DNA repair in human embryonic kidney (HEK293T) cells expressing luciferase-tagged ELG1; also: nearly all actives have a fitted effect of over 55% in size
Details: HEK293T ELG1-luciferase reporter, luminescence, 16 h, DNA damage induced by 5-fluorouridine; activity change, negative = inhibition: at 46.1 µM (top of the series)
How it was run: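 Luminescence from the luciferase reporter, measured 30 min after ONE-Glo reagent at room temperature, was the read-out. Beforehand, 2,000 cells per well were exposed for 16 hr at 37 °C to 5-fluorouridine together with compound or vehicle.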
% is scaled to controls: 0 for no effect and ±100 for the full control effect; potency is read from the fitted curve at half-maximal effect.

Q: Which Potency does the source give for `Cc1ccc(Nc2nc(C)cs2)cc1` here?
A: Its Potency is inconclusive: 23.1 µM [activator, partial curve].

Q: Which Potency does the source give for `O=C(NCCc1cccs1)c1cccs1` here?
A: The Potency was inconclusive: 10.3 µM [activator, partial curve].

Q: Which Potency does the source give for `CN(C)C(CNC(=O)C1CCCN1C(=O)c1cccs1)c1ccccc1` (stereo not drawn) here?
A: The Potency was inconclusive: 18.3 µM [activator, partial curve, poor fit].

Q: For `CC(=O)Nc1ccc(/C=N/NC(=O)CNC(=O)c2ccccc2)cc1`, which “activity change, negative = inhibition” value is on record?
A: Its value is inactive: 5.95%.

Q: Which Potency does the source give for `CN1C(=O)c2cccc3c(N(C)C)ccc(c23)C1=O` here?
A: Its Potency is inconclusive: 0.259 µM [activator, single point].

Q: For `CCOC(=O)CCn1nc(-c2ccccc2)cc1N`, which Potency is on record?
A: The Potency was inconclusive: 18.4 µM [activator, single point].

Q: With `O=C(CN1C(=O)NC2(CCCC2)C1=O)Nc1nc2ccc(F)cc2s1` as the compound, how does the Potency read?
A: The Potency was inconclusive: 29.1 µM [activator, single point].

Q: Which Potency does the source give for `CN1CCN(CC(=O)Nc2nc3c(s2)CCCC3)CC1` here?
A: Its Potency is inconclusive: 32.6 µM [activator, single point].

Q: Which Potency does the source give for `CCN(CC(=O)Nc1c(F)cccc1F)C(=O)C1CCN(c2ncnc3sc(C)c(C)c23)CC1` here?
A: Its Potency is inconclusive: 5.17 µM [inhibitor, full curve, poor fit].

Q: For `O=C(CSc1nnc(CCCN2C(=O)c3cccc4cccc(c34)C2=O)n1-c1ccccc1)N1CCCCC1`, which Potency is on record?
A: The Potency was inconclusive: 18.4 µM [inhibitor, partial curve].

Q: With `O=C(Cn1cnnn1)Nc1cccc(S(=O)(=O)N2CCCCC2)c1` as the compound, how does the “activity change, negative = inhibition” value read?
A: Its value is inactive: 5.66%.

Q: With `O=C(CC1C(=O)NCCN1C(=O)c1ccc(Cl)cc1)Nc1ccc(F)cc1` (stereo not drawn) as the compound, how does the “activity change, negative = inhibition” value read?
A: Its value is inactive: 3.12%.

Q: Which Potency does the source give for `COc1ccc(CCN2CC(C(=O)NCc3ccco3)CC2=O)cc1OC` (stereo not drawn) here?
A: Its Potency is inconclusive: 29.1 µM [inhibitor, single point].

Q: With `Cc1nnc(NC(=O)C2CCN(S(=O)(=O)c3cc([N+](=O)[O-])ccc3Cl)CC2)o1` as the compound, how does the Potency read?
A: Its Potency is inconclusive: 5.8 µM [activator, partial curve].

Q: Which “activity change, negative = inhibition” value does the source give for `CCOC(=O)c1c(NC(=S)NC(=O)c2ccc(Cn3cc(Cl)cn3)o2)sc2c1CCC(C)C2` (stereo not drawn) here?
A: The value was inactive: -4.58%.

Q: For `Cc1ccc(-c2ccc(C(=O)O)[nH]2)cc1`, which Potency is on record?
A: Its Potency is inconclusive: 23.1 µM [activator, single point].

Q: With `O=[N+]([O-])c1ccccc1/C=N\N1CCN(Cc2ccccc2Cl)CC1` as the compound, how does the Potency read?
A: Its Potency is inconclusive: 16.4 µM [activator, single point].

Q: For `COC(=O)Cc1ccc(Oc2ncc(C(F)(F)F)cc2Cl)cc1`, which Potency is on record?
A: Its Potency is inconclusive: 4.11 µM [inhibitor, single point].

Q: Which Potency does the source give for `COc1ccccc1-n1c(SCC(=O)NC(C)(C)C)nc(O)cc1=O` here?
A: Its Potency is inconclusive: 13 µM [activator, partial curve].

Q: For `NC1=NC2(CCC(c3ccccc3)CC2)n2c(nc3ccccc32)N1` (stereo not drawn), which Potency is on record?
A: Its Potency is inconclusive: 23.1 µM [inhibitor, partial curve, poor fit].

Q: For `CN(Cc1c(C(=O)N/N=C/c2cccs2)nnn1-c1nonc1N)c1ccccc1`, which “activity change, negative = inhibition” value is on record?
A: Its value is inactive: 0.619%.

Q: With `COc1ccc(/C(C)=N/NC(=O)c2nnn(-c3nonc3N)c2-c2ccccc2)cc1` as the compound, how does the Potency read?
A: Its Potency is inconclusive: 29.1 µM [activator, single point].

Q: For `CNc1oc(/C=C/c2cccc(OC)c2)nc1C#N`, which Potency is on record?
A: Its Potency is inconclusive: 14.6 µM [activator, partial curve].

Q: Which Potency does the source give for `O=C(c1ccc(-c2ccccc2Cl)o1)N1CCN(c2ccccc2O)CC1` here?
A: Its Potency is inconclusive: 10.3 µM [inhibitor, partial curve, poor fit].

Q: For `COc1ccc(CCNC(=O)COc2ccc(N(C)S(=O)(=O)c3ccc(C)cc3)cc2)cc1OC`, which Potency is on record?
A: The Potency was active: 20.6 µM.

Q: With `COc1ccc2c(c1)O/C(=C\c1sccc1C)C2=O` as the compound, how does the Potency read?
A: Its Potency is inconclusive: 18.4 µM [activator, partial curve].

Q: For `Cc1ccnc(NC(=O)/C=C/c2ccccc2Cl)c1`, which Potency is on record?
A: Its Potency is inconclusive: 0.731 µM [activator, partial curve].

Q: For `O=S(=O)(c1ccc2c(c1)OCO2)N1CCN(c2nnnn2-c2ccccc2)CC1`, which Potency is on record?
A: The Potency was inconclusive: 0.0058 µM [inhibitor, full curve, poor fit].

Q: For `CCC(=O)Nc1c(-c2ccc3ccccc3c2)nc2ccccn12`, which Potency is on record?
A: The Potency was inconclusive: 18.3 µM [activator, single point].

Q: For `CCN(C(=O)c1coc(=O)c(Br)c1)c1ccc2c(c1)OCO2`, which “activity change, negative = inhibition” value is on record?
A: Its value is inactive: 26.3%.

Q: With `O=C(CN1CCC(C(=O)c2ccc(Cl)cc2)CC1)Nc1ccc2c(c1)OCCO2` as the compound, how does the Potency read?
A: Its Potency is inconclusive: 29.1 µM [inhibitor, single point].

Q: For `O=C(NCCC1=CCCCC1)c1ccc(Br)o1`, which Potency is on record?
A: Its Potency is inconclusive: 11.2 µM [activator, partial curve].

Q: Which Potency does the source give for `COc1ccc(NS(=O)(=O)c2cc(NC(=O)Cn3cnc4c3c(=O)n(C)c(=O)n4C)ccc2C)cc1` here?
A: The Potency was inconclusive: 23.1 µM [inhibitor, single point].

Q: Which “activity change, negative = inhibition” value does the source give for `CCOC(=O)c1cc(CC)sc1NC(=O)COc1ccc2c(C)cc(=O)oc2c1` here?
A: Its value is inactive: -14.8%.

Q: With `O=C(c1ccc(Cl)c([N+](=O)[O-])c1)N(Cc1ccc(F)cc1)C1CCS(=O)(=O)C1` (stereo not drawn) as the compound, how does the Potency read?
A: The Potency was inconclusive: 29.1 µM [activator, single point].

Q: With `CCc1nc2ccc(C(=O)N3CCN(c4cccc(C)c4C)CC3)cc2nc1CC` as the compound, how does the Potency read?
A: Its Potency is inconclusive: 29.1 µM [inhibitor, partial curve, poor fit].

Q: With `Nn1c(SCc2ccccc2F)nnc1-c1ccncc1` as the compound, how does the Potency read?
A: The Potency was inconclusive: 18.3 µM [activator, partial curve].

Q: Which Potency does the source give for `CCN(C(=O)/C=C/c1cc(OC)c(OC)c(OC)c1)C1CCCCC1` here?
A: Its Potency is inconclusive: 10 µM [inhibitor, partial curve, poor fit].

Q: With `Cc1ccccc1Sc1ncnc2onc(C)c12` as the compound, how does the “activity change, negative = inhibition” value read?
A: Its value is inactive: -2.78%.

Q: Which “activity change, negative = inhibition” value does the source give for `COc1ccc2[nH]c3c(=O)n(CCCCCC(=O)NCCC(C)C)c(=S)[nH]c3c2c1` here?
A: The value was inactive: -20.4%.

Q: With `O=C(c1cc(-c2ccc(O)cc2)on1)N1CCCc2ccccc21` as the compound, how does the Potency read?
A: Its Potency is inconclusive: 3.66 µM [activator, full curve].

Q: With `Cc1ccccc1NC(=O)C1CCCN(S(=O)(=O)c2ccc3c(c2)C(C)(C)C(=O)N3C)C1` (stereo not drawn) as the compound, how does the “activity change, negative = inhibition” value read?
A: Its value is inactive: 18.7%.

Q: For `COC(=O)c1ccccc1NC(=O)c1ccc2nccnc2c1`, which “activity change, negative = inhibition” value is on record?
A: Its value is inactive: -3.31%.

From PubChem BioAssay AID504467 (National Center for Advancing Translational Sciences (NCATS), 2011)
